Assay results reported in patent US20100311660A1.
Results are given in words; binding and its absence hold for the method and conditions named. Some binding calls cover weakened binding; strength is not graded here.

Biological target: T1, human NPR-C (human) (UniProt P17342)
T1 sequence (looked up): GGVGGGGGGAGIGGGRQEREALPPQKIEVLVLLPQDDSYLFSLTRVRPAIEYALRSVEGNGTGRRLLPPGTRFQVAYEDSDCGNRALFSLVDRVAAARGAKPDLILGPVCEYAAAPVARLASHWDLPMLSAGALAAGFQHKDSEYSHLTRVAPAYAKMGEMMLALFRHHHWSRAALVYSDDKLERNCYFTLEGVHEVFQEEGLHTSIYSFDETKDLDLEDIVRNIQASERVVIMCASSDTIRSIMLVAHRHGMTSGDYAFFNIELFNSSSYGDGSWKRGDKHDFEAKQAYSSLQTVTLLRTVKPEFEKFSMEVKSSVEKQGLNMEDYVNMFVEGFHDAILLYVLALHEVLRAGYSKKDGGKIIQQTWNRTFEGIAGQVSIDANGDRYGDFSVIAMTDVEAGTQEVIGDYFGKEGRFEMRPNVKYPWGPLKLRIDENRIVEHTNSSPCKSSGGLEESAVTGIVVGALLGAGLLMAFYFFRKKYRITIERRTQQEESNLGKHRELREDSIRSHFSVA
Test: receptor binding assay, methods similar to Fan et al. 2005

B1: ASBNP.1 polypeptide (peptide)
peptide: SPKMVQGSGCFGRKMDRISSSSGLGCKGKHPLPPRPPSPIPV
binding: binds
